# According to PubChem BioAssay AID504834 (National Center for Advancing Translational Sciences (NCATS), 2011):
# The whole screen tested about 320,000 compounds, of which about 22,000 (6.9%) were called active. The inconclusive results got no clear call from the source; some entries with a clear call stand among them for comparison. Calls follow the shape of the dose curve; as a rule, active = well fitted inhibition curve with a large enough effect; inconclusive = small, poorly fitted or top-dose-only effect, or another doubt; inactive = no such curve, though single readings can be large or run the other way. Potencies beside an inconclusive call are fits to weak or partial responses and may not hold up.
# Test: Primary qHTS for delayed death inhibitors of the malarial parasite plastid, 96 hour incubation
# Conditions: P. falciparum luciferase reporter growth; series mostly up to 28.7 µM; activity change, negative = inhibition: at the top concentration
# How it was run: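 P. falciparum expressing integrated firefly luciferase grown in erythrocytes (2% hematocrit, 0.05% parasitemia final) with compounds for 96 hours at 37 C, 5% CO2. Growth inhibition read as loss of luminescence after adding luciferase detection reagent.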
# % is scaled to controls: 0 for no effect and ±100 for the full control effect; potency is read from the fitted curve at half-maximal effect.
SMILES,Potency,"activity change, negative = inhibition"
CC(=O)c1c(C)oc2ccc(N(C(C)=O)S(=O)(=O)c3ccc(Cl)c([N+](=O)[O-])c3)cc12,"inconclusive: 0.522 µM [inhibitor, full curve, poor fit]",
O=C(C[n+]1cc(-c2ccc(Cl)c(Cl)c2)n2c1CCC2)OCc1ccccc1,,inactive: 10.9%
Cc1c(/C=N/NC(=O)c2cccnc2)c2ccccc2n1Cc1ccccc1,,inactive: -25.1%
O=C(NC1(c2ccccc2)CC1)C1CCC(=O)N(Cc2ccc(Cl)cc2)C1 (stereo not given),,inactive: -0.178%
C=CCn1c(O)c(N=O)c2ccccc21,"inconclusive: 18.5 µM [inhibitor, single point]",
O=CN1CCc2scc[n+]2-c2ccccc21,"inconclusive: 18.5 µM [inhibitor, single point]",
CSCCC(N=CC1=C(O)CC(C)(C)CC1=O)C(=O)O (stereo not given),"inconclusive: 8.28 µM [inhibitor, single point]",
Cc1cc(O)c(C(=O)/C=C/c2c(F)c(F)c(F)c(F)c2F)c(=O)o1,"inconclusive: 18.5 µM [inhibitor, single point]",
Cc1noc(C)c1C(=O)Nc1ccc(S(=O)(=O)N2CCCCC2)cc1,"inconclusive: 4.15 µM [inhibitor, partial curve, poor fit]",
O=[N+]([O-])c1ccc2oc(C(O)c3cccc(Cl)c3)cc2c1 (stereo not given),"inconclusive: 13.1 µM [inhibitor, single point]",
O=C(CCc1c[nH]c2ccccc12)N=Nc1c(O)[nH]c2ccccc12,"inconclusive: 1.47 µM [inhibitor, partial curve, poor fit]",
O=C1CN(C(=O)CCN2CCOCC2)C(c2ccccc2)c2cc(Br)ccc2N1 (stereo not given),"inconclusive: 11.7 µM [inhibitor, partial curve, poor fit]",
Cc1ccc2nsnc2c1S(=O)(=O)NCc1ccc2c(c1)OCO2,"inconclusive: 10.4 µM [inhibitor, single point]",
Nc1c(C(=O)Nc2ccccc2)sc2nc3c(c(-c4ccco4)c12)CCCC3,"inconclusive: 13.1 µM [inhibitor, single point]",
Cc1cccc(OCc2nc(-c3ccccn3)n[nH]2)c1,,inactive: 18.7%
CCOc1ccc(S(=O)(=O)NCC(=O)NC2CCCCC2)cc1,"inconclusive: 13.1 µM [inhibitor, single point]",
COc1ccc(-c2sc3cc4c(cc3c2C#CC2(O)CCCCC2)OCO4)cc1,"inconclusive: 6.57 µM [inhibitor, partial curve, poor fit]",
CCC(CC)N1CCN(CC2CC=CCC2)CC1 (stereo not given),,inactive: 15.2%
COc1ccc(Nc2nnc(-c3ccc(N4CCOCC4)c([N+](=O)[O-])c3)c3ccccc23)cc1,"inconclusive: 18.5 µM [inhibitor, single point]",
CC(=O)Oc1ccc(-c2csc(Nc3cccnc3)n2)cc1,"inconclusive: 0.0586 µM [inhibitor, full curve, poor fit]",
CCN(CC)c1ccc(C(=O)NNC(=O)CCl)cc1,"inconclusive: 11.7 µM [inhibitor, partial curve, poor fit]",
CCc1cc(C(=O)NNC(=S)Nc2cccc(C)c2)cs1,,inactive: 76.8%
Fc1ccc(Cn2cccc2C2=NC(c3ccccc3)CO2)cc1 (stereo not given),"inconclusive: 14.7 µM [inhibitor, partial curve, poor fit]",
COc1ccc(C2CC(=O)c3cnc(NC(=O)c4cccc(OC)c4)nc3C2)cc1 (stereo not given),"inconclusive: 6.57 µM [inhibitor, partial curve, poor fit]",

# A stretch from the list above, as a working copy:
SMILES,Potency,"activity change, negative = inhibition"
Cc1cccc(OCc2nc(-c3ccccn3)n[nH]2)c1,,inactive: 18.7%
CCOc1ccc(S(=O)(=O)NCC(=O)NC2CCCCC2)cc1,"inconclusive: 13.1 µM [inhibitor, single point]",
COc1ccc(-c2sc3cc4c(cc3c2C#CC2(O)CCCCC2)OCO4)cc1,"inconclusive: 6.57 µM [inhibitor, partial curve, poor fit]",
CCC(CC)N1CCN(CC2CC=CCC2)CC1 (stereo not given),,inactive: 15.2%
COc1ccc(Nc2nnc(-c3ccc(N4CCOCC4)c([N+](=O)[O-])c3)c3ccccc23)cc1,"inconclusive: 18.5 µM [inhibitor, single point]",

# Further entries follow.

SMILES,Potency,"activity change, negative = inhibition"
CCOC(=O)C1(CCOc2ccccc2)CCN(Cc2cccc(OCCO)c2)CC1,,inactive: -2.07%
CCOC(=O)c1ccc(N2C=C(C(=O)OC)C(c3cccc(O)c3)C(C(=O)OC)=C2)cc1,,inactive: 11.9%
CCN(CC)S(=O)(=O)c1cccc(NC(=O)CN(C)Cc2cccc(OC)c2)c1,"inconclusive: 10.4 µM [inhibitor, partial curve, poor fit]",
O=C(Nc1ccc2ccccc2c1)c1nn(C23CC4CC(CC(C4)C2)C3)cc1Br,"inconclusive: 1.31 µM [inhibitor, partial curve]",
COc1ccccc1CNC(=O)CN(C)S(=O)(=O)c1cccc2cccnc12,,inactive: 14.1%
O=C(CN1CCOCC1)Nc1cccc(C(=O)Nc2cccc(C(F)(F)F)c2)c1,,inactive: 0%
Cc1cccc(OCc2nnc(SCC(=O)N(C(C)C)C(C)C)n2Cc2ccco2)c1C,"inconclusive: 10.4 µM [inhibitor, partial curve, poor fit]",
CCN(CC)C(=O)c1ccc(NC(=O)c2cccc(C(F)(F)F)c2)cc1,"inconclusive: 0.0033 µM [inhibitor, full curve, poor fit]",
Cc1ccc(CNC(=O)CSc2ncccn2)cc1,,inactive: -2.18%
O=C(O)c1cc(-c2ccc3c(c2)OCO3)nc2ccc(Cl)cc12,,inactive: 12.7%
COc1ccc(C(=O)Nc2cc(C)nn2-c2cccc(F)c2)cc1OC,"inconclusive: 10.4 µM [inhibitor, single point]",
N#Cc1ccc(OC(=O)C2CCN(C3=NS(=O)(=O)c4ccccc43)CC2)cc1,,inactive: -9.09%
COCCN(C(=S)Nc1cccc(OC)c1)C1CCN(C(C)=O)CC1,,inactive: 21.4%
NC[C@H](Cc1ccccc1)NCCCCC1CCCCC1,"inconclusive: 5.22 µM [inhibitor, single point]",
O=C(CN1CC(=O)Nc2ccccc21)Nc1ccc(F)c(F)c1,"inconclusive: 1.04 µM [inhibitor, partial curve, poor fit]",
CC1CC(C)CN(C(=O)COC(=O)c2ccc(Cl)nc2)C1 (stereo not given),,inactive: 15.1%
Cc1cc(NC(=O)c2cc(C(C)(C)C)oc2C)no1,"inconclusive: 18.5 µM [inhibitor, single point]",
O=C(c1cc2cc(F)ccc2[nH]1)N1CCc2ccccc21,"inconclusive: 0.415 µM [inhibitor, full curve, poor fit]",
Cc1occc1C(=O)Nc1cc(C(F)(F)F)ccc1Cl,"inconclusive: 0.185 µM [inhibitor, full curve, poor fit]",
COc1ccc2[nH]c(CN3CCC(CO)(CCOc4ccccc4)CC3)c(C)c2c1,"inconclusive: 11.7 µM [inhibitor, partial curve]",
COCCNC(=O)c1cn(C)c2ccc(S(=O)(=O)N3CCCCC3)cc2c1=O,"inconclusive: 4.15 µM [inhibitor, partial curve, poor fit]",
O=C(/C=C\c1ccc(-c2cccc([N+](=O)[O-])c2)o1)N1CCOCC1,,inactive: 21.8%
Cc1cc([N+](=O)[O-])ccc1NC(=O)c1cc2ccccc2o1,,inactive: 8.74%
Cc1ccc(S(=O)(=O)Cn2nnnc2CN(Cc2ccco2)CC2CCCO2)cc1 (stereo not given),active: 4.15 µM,

SMILES,Potency,"activity change, negative = inhibition"
O=C(NC1CCCCCCC1)C1c2ccccc2C(=O)N1Cc1cccs1 (stereo not given),"inconclusive: 16.5 µM [inhibitor, single point]",
O=C(N1CCCCC1)C12CC3CC(CC(C3)C1)C2,"inconclusive: 5.86 µM [inhibitor, single point]",
CCCCCCCCCC(=O)Nn1cnc2ccccc2c1=O,"inconclusive: 14.7 µM [inhibitor, single point]",
CC(C)CN(C(=O)c1cc(=O)[nH]c2ccccc12)c1c(N)n(Cc2ccccc2)c(=O)[nH]c1=O,,inactive: -4.46%
COC(=O)c1cccc(Nc2ncnc3sccc23)c1,,inactive: 68.5%
Cc1cc(C(=O)N2CCCC2C(=O)O)c(C)o1 (stereo not given),"inconclusive: 18.5 µM [inhibitor, single point]",
CCC(Cc1ccccc1)NS(=O)(=O)c1ccc2c(c1)NC(=O)CO2 (stereo not given),"inconclusive: 0.465 µM [inhibitor, partial curve, poor fit]",
CCN(CC)C(=O)CSc1nc(-c2cccs2)cc(-c2cccs2)c1C#N,"inconclusive: 11.7 µM [inhibitor, partial curve, poor fit]",
COc1ccc(C(CNC(=O)Cc2cc(OC)c(OC)c(OC)c2)N2CCCC2)cc1 (stereo not given),"inconclusive: 16.5 µM [inhibitor, partial curve, poor fit]",
O=C(N/N=C/c1ccncc1)c1ccc(NS(=O)(=O)c2cccs2)cc1,,inactive: 32.2% [at 5.75 µM]
COc1ccc2nc(C)cc(Nc3ccc(C)cc3)c2c1,,inactive: 9.1%
COCCN(CCOC)C(=O)c1sc2nc(-c3ccccc3)cn2c1C,,inactive: 31.6%
Cc1cc(N2CCC(C(=O)NC3CC3)CC2)nc(-c2ccccc2)n1,"inconclusive: 14.7 µM [inhibitor, single point]",
O=C(NC1CCCCCC1)C1CCN(C(=O)Cc2ccccc2)CC1,"inconclusive: 11.7 µM [inhibitor, single point]",
Cc1cc2cc(CN(CCN(C)C)C(=S)NCc3ccco3)c(=O)[nH]c2cc1C,"inconclusive: 11.7 µM [inhibitor, single point]",
COc1cccc(C(=O)c2c[nH]c(C(=O)NCc3cccnc3)c2)c1,"inconclusive: 4.15 µM [inhibitor, full curve, poor fit]",
COc1ccc(N(CC(=O)N2CCN(c3cccc(C)c3C)CC2)S(=O)(=O)c2c(C)noc2C)cc1,active: 13.1 µM,
Cc1cc([N+](=O)[O-])ccc1NC1CCCC1,,inactive: 33.7%
COc1ccc(N(Cc2cc3ccc(C)cc3[nH]c2=O)C(C)=O)cc1,"inconclusive: 18.5 µM [inhibitor, single point]",
S=C(NCCCN1CCOCC1)NC1CC1,"inconclusive: 8.28 µM [inhibitor, single point]",
COc1ccc(S(=O)(=O)N2CCCCC2)cc1NC(=O)CCNC(=O)c1ccco1,"inconclusive: 14.7 µM [inhibitor, single point]",
CC1=C(C(=O)Nc2ccc(CC(=O)NCc3ccccc3C)cc2)SCCO1,"inconclusive: 18.5 µM [inhibitor, single point]",
